Drawing on US20200270322A1, this text covers binding for 3 molecules.

By UniProt entry, the sequences of proteins in these tests, tags left out. Residues count along the entry.
11A12, a recombinantly expressed ED-A (P02751, residues 1632-1903): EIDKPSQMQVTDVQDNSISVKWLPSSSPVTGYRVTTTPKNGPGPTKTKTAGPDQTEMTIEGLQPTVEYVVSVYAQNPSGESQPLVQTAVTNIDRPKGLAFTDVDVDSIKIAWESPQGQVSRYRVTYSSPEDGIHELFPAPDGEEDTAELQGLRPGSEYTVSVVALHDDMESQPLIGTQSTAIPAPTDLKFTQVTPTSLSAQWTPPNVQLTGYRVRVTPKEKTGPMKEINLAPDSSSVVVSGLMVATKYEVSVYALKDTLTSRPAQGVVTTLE
Recombinant EDA-domain (P02751, residues 1722-1811): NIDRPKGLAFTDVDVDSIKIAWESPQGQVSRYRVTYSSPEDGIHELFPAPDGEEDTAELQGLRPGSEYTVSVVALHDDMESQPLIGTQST

No constants are given. Whether binding was seen depends on the method and setting. Some binding calls cover weakened binding; strength is not graded here.

Test [1] concerns the target 11A12, a recombinantly expressed ED-A (UniProt P02751). The test can be described thus: SPR, Biacore 3000, 11A12 coated on a CM5 chip. Background: In SPR one partner is held on a chip, and binding of the other changes the refractive index at the surface.
The target in a further test is Recombinant EDA-domain (UniProt P02751). The test can be described thus: ELISA on immobilised recombinant EDA-domain, detected with anti-hIL4 and anti-mouse IgG-HRP. A general note: An ELISA detects its analyte on a solid surface through an enzyme-linked reagent.

B1: hIL4-ScDbF8 (protein)
chain: HKCDITLQEIIKTLNSLTEQKTLCTELTVTDIFAASKNTTEKETFCRAATVLRQFYSHHEKDTRCLGATAQQFHRHKQLIRFLKRLDRNLWGLAGLNSCPVKEANQSTLENFLERLKTIMREKYSKCSSGGGGSGGGGSGGGGSEVQLLESGGGLVQPGGSLRLSCAASGFTFSLFTMSWVRQAPGKGLEWVSAISGSGGSTYYADSVKGRFTISRDNSKNTLYLQMNSLRAEDTAVYYCAKSTHLYLFDYWGQGTLVTVSSGGSGGEIVLTQSPGTLSLSPGERATLSCRASQSVSMPFLAWYQQKPGQAPRLLIYGASSRATGIPDRFSGSGSGTDFTLTISRLEPEDFAVYYCQQMRGRPPTFGQGTKVEIKSSSSGSSSSGSSSSGEVQLLESGGGLVQPGGSLRLSCAASGFTFSLFTMSWVRQAPGKGLEWVSAISGSGGSTYYADSVKGRFTISRDNSKNTLYLQMNSLRAEDTAVYYCAKSTHLYLFDYWGQGTLVTVSSGGSGGEIVLTQSPGTLSLSPGERATLSCRASQSVSMPFLAWYQQKPGQAPRLLIYGASSRATGIPDRFSGSGSGTDFTLTISRLEPEDFAVYYCQQMRGRPPTFGQGTKVEIK
Turning to B1, the binding entry (in test [1]; with Recombinant EDA-domain) was “binds” throughout.

B2: ScFvF8-hIL4-ScFvF8 (protein)
chain: EVQLLESGGGLVQPGGSLRLSCAASGFTFSLFTMSWVRQAPGKGLEWVSAISGSGGSTYYADSVKGRFTISRDNSKNTLYLQMNSLRAEDTAVYYCAKSTHLYLFDYWGQGTLVTVSSGGGGSGGGGSGGGGEIVLTQSPGTLSLSPGERATLSCRASQSVSMPFLAWYQQKPGQAPRLLIYGASSRATGIPDRFSGSGSGTDFTLTISRLEPEDFAVYYCQQMRGRPPTFGQGTKVEIKSSSSGSSSSGSSSSGHKCDITLQEIIKTLNSLTEQKTLCTELTVTDIFAASKNTTEKETFCRAATVLRQFYSHHEKDTRCLGATAQQFHRHKQLIRFLKRLDRNLWGLAGLNSCPVKEANQSTLENFLERLKTIMREKYSKCSSSSSSGSSSSGSSSSGEVQLLESGGGLVQPGGSLRLSCAASGFTFSLFTMSWVRQAPGKGLEWVSAISGSGGSTYYADSVKGRFTISRDNSKNTLYLQMNSLRAEDTAVYYCAKSTHLYLFDYWGQGTLVTVSSGGGGSGGGGSGGGGEIVLTQSPGTLSLSPGERATLSCRASQSVSMPFLAWYQQKPGQAPRLLIYGASSRATGIPDRFSGSGSGTDFTLTISRLEPEDFAVYYCQQMRGRPPTFGQGTKVEIK
B2: the binding entry (in test [1]; in the test with Recombinant EDA-domain) was “binds” each time.

B3: ScDbF8-hIL4 (protein)
chain: EVQLLESGGGLVQPGGSLRLSCAASGFTFSLFTMSWVRQAPGKGLEWVSAISGSGGSTYYADSVKGRFTISRDNSKNTLYLQMNSLRAEDTAVYYCAKSTHLYLFDYWGQGTLVTVSSGGSGGEIVLTQSPGTLSLSPGERATLSCRASQSVSMPFLAWYQQKPGQAPRLLIYGASSRATGIPDRFSGSGSGTDFTLTISRLEPEDFAVYYCQQMRGRPPTFGQGTKVEIKSSSSGSSSSGSSSSGEVQLLESGGGLVQPGGSLRLSCAASGFTFSLFTMSWVRQAPGKGLEWVSAISGSGGSTYYADSVKGRFTISRDNSKNTLYLQMNSLRAEDTAVYYCAKSTHLYLFDYWGQGTLVTVSSGGSGGEIVLTQSPGTLSLSPGERATLSCRASQSVSMPFLAWYQQKPGQAPRLLIYGASSRATGIPDRFSGSGSGTDFTLTISRLEPEDFAVYYCQQMRGRPPTFGQGTKVEIKGGGGSGGGGSGGGGSHKCDITLQEIIKTLNSLTEQKTLCTELTVTDIFAASKNTTEKETFCRAATVLRQFYSHHEKDTRCLGATAQQFHRHKQLIRFLKRLDRNLWGLAGLNSCPVKEANQSTLENFLERLKTIMREKYSKCSS
In the case of B3, the binding result (in test [1]; with Recombinant EDA-domain) was “binds” throughout.
